# Measured values reported in PubChem BioAssay AID2551 (National Center for Advancing Translational Sciences (NCATS), 2010).
# Sequences of proteins named here, by UniProt entry; tags and fusion partners are left off. A change or cut given only in a name is not applied to a line headed by its entry.
# UniProt P51450: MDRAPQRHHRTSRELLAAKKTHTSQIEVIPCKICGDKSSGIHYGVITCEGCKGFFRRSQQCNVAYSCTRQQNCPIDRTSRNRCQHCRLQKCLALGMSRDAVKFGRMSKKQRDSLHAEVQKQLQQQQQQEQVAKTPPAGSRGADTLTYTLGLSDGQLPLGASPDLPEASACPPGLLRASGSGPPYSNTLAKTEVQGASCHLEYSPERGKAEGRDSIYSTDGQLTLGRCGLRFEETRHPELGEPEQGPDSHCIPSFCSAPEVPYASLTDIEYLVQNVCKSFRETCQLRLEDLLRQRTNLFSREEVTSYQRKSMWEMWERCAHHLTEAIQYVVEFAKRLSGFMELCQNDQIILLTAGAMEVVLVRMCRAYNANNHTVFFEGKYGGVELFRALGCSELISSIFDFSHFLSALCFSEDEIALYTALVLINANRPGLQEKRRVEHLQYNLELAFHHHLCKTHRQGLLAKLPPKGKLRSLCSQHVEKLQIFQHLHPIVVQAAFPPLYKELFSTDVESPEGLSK
# Values joined by “and” are separate entries in the source; they are usually repeats but may differ in a detail not shown here. Equal values may be shown once. Out of some 310,000 compounds screened, about 17,000 (5.5%) were called active. This list was built around the results that the source calls inconclusive (neither active nor inactive); the mix of calls is not that of the screen. Calls follow the shape of the dose curve; as a rule, active = well fitted inhibition curve with a large enough effect; inconclusive = small, poorly fitted or top-dose-only effect, or effect the other way; inactive = no such curve, though single readings can be large or run the other way. A potency beside an inconclusive call is a rough fit, not a confirmed value. More than one record can exist for a structure, and the calls need not agree.
# Biological target: Nuclear receptor ROR-gamma (Mus musculus) (UniProt P51450)
# Assay: qHTS for inhibitors of ROR gamma transcriptional activity; also: nearly all actives have a fitted effect of over 60% in size
# Conditions: Drosophila S2 Gal4-RORgamma UAS-luciferase reporter, 20 h; series mostly up to 53.6 µM
# In short: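 Luciferase reporter read in Schneider cells carrying Gal4-RORγ (mouse) and UAS-Photinus luciferase; cells given compound 1 h before 700 uM copper sulfate induction, then incubated 20 h at ambient temperature.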
# Potency is read from the fitted curve at half-maximal effect.
row,Compound,Potency
1,CCCc1cc2c(n1Cc1cccc(Cl)c1)C(C)C1CN(C(=O)c3ccccc3)C(C)(C(=O)OC)C21 (stereo not given),"inconclusive: 35.5 µM [activator, single point]"
2,c1ccc2sc(SNC3CCCCC3)nc2c1,active: 8.91 µM
3,N#C/C(=C\c1ccc(N2CCCCC2)c([N+](=O)[O-])c1)c1nn(-c2ccccc2)c(N)c1C#N,"inconclusive: 3.55 µM [activator, partial curve]"
4,CCCCC/C=C\C/C=C\C/C=C\C/C=C\CCCC(=O)NCCc1ccc(O)c(O)c1,inactive and active: 11.2 µM
5,O=c1[nH]c(=S)[nH]c(O)c1/C=C1/C=c2ccccc2=N1,active: 12.6 µM
6,CCCCN(C(=O)Oc1ccccc1)C1CCS(=O)(=O)C1 (stereo not given),"inconclusive: 8.91 µM [activator, partial curve]"
7,CN(C)c1ccc(NC(=O)CN2C3CCCC2CC(NC(=O)c2ccccc2)C3)cc1 (stereo not given),"inconclusive: 7.94 µM [activator, partial curve, poor fit]"
8,CC(C)c1ccc(NC(=O)CSc2nnc(OC(=O)N(C)C)n2C2CC2)cc1,"inconclusive: 15.8 µM [activator, single point]"
9,O=C1C(Cl)=C(Cl)C(=O)C(Cl)=C1Cl,active: 4.47 µM
10,CC[C@@H]1CN2CCc3cc(OC)c(OC)cc3[C@H]2C[C@@H]1C[C@H]1NCCc2cc(OC)c(OC)cc21,active: 0.562 µM
11,CCCCCC[C@H]1C(=O)O[C@H](C)[C@H](NC(=O)c2cccc(NC=O)c2O)C(=O)O[C@@H](C)[C@H]1OC(=O)CC(C)C,"inconclusive: 6.31 µM [inhibitor, full curve, poor fit]"
12,CC1CCN(S(=O)(=O)c2ccc(NN=C(C#N)C#N)cc2)CC1,"inconclusive: 35.5 µM [inhibitor, single point]"
13,S=C1CN=C(c2ccccc2)c2cc(Cl)ccc2N1,active: 2 µM
14,O=C(N/N=C/c1c(O)n(CCc2ccccc2)c(=O)[nH]c1=O)c1ccccc1O,"inconclusive: 5.01 µM [inhibitor, partial curve]"
15,COP(=O)(OC)C1(O)C(=O)Nc2ccc(Br)cc21 (stereo not given),"inconclusive: 11.2 µM [inhibitor, partial curve]"
16,CCN(CC)S(=O)(=O)c1ccc(C)c(NCC(=O)Nc2ccc(C#N)c(Cl)c2)c1,"inconclusive: 11.2 µM [activator, partial curve]"
17,O=C(Nc1cccc(F)c1)N1CC2(CCN(C(=O)Oc3ccccc3)CC2)C1,inactive
18,Cc1ccc2c(c1)C1(CCN(CCc3nc(-c4ccccc4)oc3C)CC1)OC(=O)N2,inactive
19,CCOP(=O)(OCC)C(NC(=O)c1ccc(C)cc1)=C(Cl)Cl,inactive
20,Cc1ccc(N=C=O)cc1N=C=O,"inconclusive: 10 µM [activator, partial curve, poor fit]"
21,O=C1C2C3CCC(C3)C2C(=O)N1c1ccc(OS(=O)(=O)c2ccccc2)cc1 (stereo not given),"inconclusive: 17.8 µM [inhibitor, single point]"
22,COc1cc(CN2C(=O)NC(=O)C3(Cc4cc(C)ccc4N(C)C3)C2=O)cc(OC)c1 (stereo not given),inactive
23,CSc1ccc(C(=O)C2CCCN(C)C2)cc1 (stereo not given),inactive
24,NNc1n[nH]c(=S)n1N,"inconclusive: 35.5 µM [inhibitor, single point]"

row,Compound,Potency
1,CCN(CC)C(=O)c1c(C)[nH]c(=S)c(C#N)c1-c1ccco1,"inconclusive: 10 µM [inhibitor, partial curve, poor fit]"
2,CCCCC/C=C\C/C=C\C/C=C\C/C=C\CCCC(=O)NC1CC1,"inconclusive: 35.5 µM [inhibitor, single point]"
3,C=Cn1ccnc1P(=S)(c1ccn(C)c1)c1nccn1C=C,"inconclusive: 7.94 µM [inhibitor, partial curve, poor fit]"
4,Nc1cccc2ccccc12,inactive
5,COc1ccc(-c2nc(CSCC(=O)N3CCC4(CC3)OCCO4)c(C)o2)cc1OC,inactive
6,O=c1[nH]c(=S)n(Cc2ccco2)c(O)c1C=NCc1cccs1,inactive
7,O=C(c1ccco1)N1CCC2(CC1)CN(Cc1ccncc1)C2,"inconclusive: 14.1 µM [inhibitor, partial curve]"
8,Cc1nc2cc(C(F)(F)F)ccc2n1C1CCN(Cc2nnnn2Cc2cccs2)CC1,inactive
9,S=C1CN=C(c2ccccc2Cl)c2cc(Cl)ccc2N1,active: 7.94 µM
10,COc1ccc(CCNC(=O)c2c(N)n(CCN3CCOCC3)c3nc4ccccc4nc23)cc1,"inconclusive: 35.5 µM [inhibitor, single point]"
11,COC(=O)C(C)Oc1cc(C)cc2oc(=O)c3c(c12)CCCC3 (stereo not given),inactive
12,COc1ccc(N2C(=O)NC(=O)/C(=C\c3ccc([N+](=O)[O-])s3)C2=O)cc1,"inconclusive: 22.4 µM [inhibitor, single point]"
13,O=C(c1ccccc1F)c1cn(Cc2ccc(F)cc2)c2ccccc12,"inconclusive: 25.1 µM [activator, single point]"
14,COC[C@]12CN(C=O)C3C4C(OC)C1[C@@]3(C1CC3(O)C(OC)C(O)C4(OC(C)=O)C1C3OC(=O)c1ccccc1)[C@@H](OC)CC2O (stereo not given in full),inactive
15,CCCC[N+]12CCC(CC1)C(=C(c1ccccc1)c1ccccc1)C2,"inconclusive: 31.6 µM [activator, single point]"
16,CCCC(C)C1(CC)C(=O)NC(=Nc2ccccc2)NC1=O (stereo not given),"inconclusive: 35.5 µM [activator, single point]"
17,Cc1ccc(-n2c(-c3nn(C)c(C)c3Cl)n[nH]c2=S)cc1,"inconclusive: 2.82 µM [inhibitor, full curve, poor fit]"
18,COc1ccc(-c2nc3ccccc3c(=O)o2)cc1,"inconclusive: 22.4 µM [inhibitor, single point]"
19,COc1ccc(-n2nc(C(=O)NCC(=O)N3CCC4(CC3)OCCO4)c3ccccc3c2=O)c(OC)c1,active: 6.31 µM
20,COCCNCCOc1ccc(C(C)(C)c2ccccc2)cc1,inactive
21,Cc1ccc(-c2nc3ccccc3c(=O)n2-c2ccncc2)cc1,inactive
22,Cc1cc(Cl)ccc1C(=O)C1CCCN(C2CCSCC2)C1 (stereo not given),inactive
23,COc1cc2c(cc1O)CC1c3c(cc(O)c(OC)c3-2)CCN1C (stereo not given),"inconclusive: 28.2 µM [inhibitor, single point]"
24,CC12CCC3C(CC=C4CC(O)CCC43C)C1C/C(=C\c1ccccc1F)C2=O (stereo not given),"inconclusive: 5.62 µM [activator, single point]"

# Copied from the list.
# Potency with S=C1CN=C(c2ccccc2Cl)c2cc(Cl)ccc2N1 is entered as active: 7.94 µM
# Potency with Nc1cccc2ccccc12 is entered as inactive
# Potency with CN(C)c1ccc(NC(=O)CN2C3CCCC2CC(NC(=O)c2ccccc2)C3)cc1 (stereo not given) is entered as inconclusive: 7.94 µM [activator, partial curve, poor fit]
# Potency with CC12CCC3C(CC=C4CC(O)CCC43C)C1C/C(=C\c1ccccc1F)C2=O (stereo not given) is entered as inconclusive: 5.62 µM [activator, single point]

# Going on with the list:

row,Compound,Potency
1,CCN(CC)C(=O)COc1cc(C)cc2oc(=O)c3c(c12)CCCC3,"inconclusive: 7.94 µM [activator, partial curve]"
2,CCOC(=O)N1C(C)CN(/[N+]([O-])=N/Oc2ccc([N+](=O)[O-])cc2[N+](=O)[O-])CC1C (stereo not given),active: 11.2 µM
3,CCCCOc1ccc(CCN)cc1Cl,inactive
4,C/C=C(\C)C(=O)OC1C(C)=C2C(C1OC(=O)CCCCC)C(C)(OC(C)=O)CC(OC(=O)CCC)C1(O)C2OC(=O)C1(C)O (stereo not given),"inconclusive: 0.708 µM [inhibitor, single point]"
5,CC(C)OCCCNC(=O)c1c(N)n(Cc2cccs2)c2nc3ccccc3nc12,"inconclusive: 17.8 µM [inhibitor, partial curve, poor fit]"
6,COc1ccccc1N1C(=O)NC(=O)/C(=C\c2cnn(-c3ccccc3)c2)C1=O,inactive
7,O=C(N/N=C/c1c(O)n(C2CC2)c(=S)[nH]c1=O)c1ccccc1,active: 14.1 µM
8,O=C1NC(=O)N(CCC2=CCCCC2)C(=O)/C1=C\c1cccs1,"inconclusive: 4.47 µM [activator, full curve]"
9,CCCCN1C(=O)NC(=O)/C(=C/c2cnc(SC)nc2)C1=O,inactive
10,O=c1oc2ccccc2c(O)c1C(c1ccccn1)c1c(O)c2ccccc2oc1=O,"inconclusive: 15.8 µM [activator, single point]"
11,COc1ccc(NC(=O)N2CCC3(CC2)CCN(C(=O)Oc2ccccc2)CC3)cc1,"inconclusive: 22.4 µM [activator, single point]"
12,Cc1ccc(N2C(=O)NC(=O)/C(=C/c3cnc(-c4ccccc4)nc3)C2=O)cc1C,inactive
13,CCN(CC)CCCN=Cc1c(O)n(-c2ccccc2F)c(=O)[nH]c1=O,inactive
14,CCNc1cc(N2CCN(C)CC2)ccc1[N+](=O)[O-],inactive
15,Oc1ccc(Cl)c2c1CCC2,"inconclusive: 11.2 µM [activator, single point]"
16,Cc1cc(C)c(C(=O)N2CCC3(CC2)OCCO3)c(C)c1,"inconclusive: 5.01 µM [activator, single point]"
17,CC(C)[C@H](CO)Nc1nc(Nc2cccc(Cl)c2)c2ncn(C(C)C)c2n1,active: 14.1 µM
18,S=c1[nH]nc(-c2ccco2)n1Cc1ccccc1,"inconclusive: 5.62 µM [inhibitor, single point]"
19,CCN(CC)CCNC(=O)c1c(O)c2ccccc2n(Cc2ccccc2)c1=O,"inconclusive: 35.5 µM [inhibitor, single point]"
20,CC(=O)OC(C)(C)/C=C/C(=O)C(C)(O)C1[C@H](O)C[C@@]2(C)C3CC=C4C(CC[C@@H](O)C4(C)C)[C@]3(CO)C(=O)C[C@]12C (stereo not given in full),"inconclusive: 11.2 µM [inhibitor, single point]"
21,C[C@]12CCC(=O)C=C1CC[C@@H]1[C@@H]2CC[C@]2(C)C(=O)CC[C@@H]12,"inconclusive: 2.82 µM [inhibitor, partial curve] and inconclusive: 35.5 µM [activator, single point]"
22,COC(=O)NC(=S)Nc1ccccc1NC(=S)NC(=O)OC,"inactive and inconclusive: 35.5 µM [inhibitor, single point]"
